Source: patent US20200239543A1 (ALX ONCOLOGY, published 2020)
These are yes or no findings as the source states them, for the method shown. Some entries that bind do so weakly or less than the wild type. Sequences can lack the tags named with a protein.

Amino acid sequences for entries named in this document (tags omitted). A change or cut given only in a name is not applied to a line headed by its entry.
UniProt P02745: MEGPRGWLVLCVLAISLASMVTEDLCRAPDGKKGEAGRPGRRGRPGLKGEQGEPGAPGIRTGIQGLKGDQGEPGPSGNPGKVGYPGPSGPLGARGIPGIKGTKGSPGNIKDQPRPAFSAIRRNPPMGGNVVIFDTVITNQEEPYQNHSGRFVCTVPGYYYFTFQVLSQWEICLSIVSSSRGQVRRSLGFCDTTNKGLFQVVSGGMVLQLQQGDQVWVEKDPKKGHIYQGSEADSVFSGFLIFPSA

Assays:
[1] = target: complement protein C1q (UniProt P02745); assay: ELISA: SIRP-α-Fc fusion coated on the plate, human C1q titrated from 0.13 to 100 ug/ml, detection with HRP-conjugated anti-human-C1q
[2] = target: complement protein C1q (UniProt P02745); assay: C1q ELISA on coated SIRP-α Fc fusion

binding [1]: binds | binding [2]: binds
B1: SIRP-α Fc construct with wildtype IgG2 Fc, SEQ ID NO: 126 (Fc fusion)
chain: EEELQIIQPDKSVLVAAGETATLRCTITSLFPVGPIQWFRGAGPGRVLIYNQRQGPFPRVTTVSDTTKRNNMDFSIRIGNITPADAGTYYCIKFRKGSPDDVEFKSGAGTELSVRAKPSERKCCVECPPCPAPPVAGPSVFLFPPKPKDTLMISRTPEVTCVVVDVSHEDPEVQFNWYVDGVEVHNAKTKPREEQFNSTFRVVSVLTVVHQDWLNGKEYKCKVSNKGLPAPIEKTISKTKGQPREPQVYTLPPSREEMTKNQVSLTCLVKGFYPSDIAVEWESNGQPENNYKTTPPMLDSDGSFFLYSKLTVDKSRWQQGNVFSCSVMHEALHNHYTQKSLSLSPGK
